The list is a part of this screen's results and no random one: it gathers tests that were run many times, whatever their T/C, doses with no T/C, and many T/C values between a quarter and a half above the control. Further doses and runs are listed elsewhere. T/C gives the treated animals as a percentage of the vehicle group. Some doses have a count of surviving animals in place of a T/C: the source holds a T/C of zero for them, seemingly a mark for toxic or unscored doses. Some doses without a T/C left all or most animals alive at the check, yet need not have been tolerated: survival well below the control is almost never listed, so the zero probably covers shortened survival too. Survivors were counted at the toxicity check, usually on the fifth day, unless a day is given; later deaths do not show. Schedules are NCI's codes, taken here to give the interval after Q, in days (D) or hours (H), and the number of doses after X. Brackets with × give the number of equal values in this list. Some entries hold several experiments; their values stand side by side, smallest first. For survival time, the PubChem record calls one and a half times the control and up active, and a quarter to a half above the control has no call in these data; cut-offs in other NCI protocols can differ.
Test system: P388 leukemia ip, CD2F1 mice, survival T/C
Experiment: NCI In Vivo Anticancer Drug Screen. Data for tumor model P388 Leukemia (intraperitoneal) in CD2F1 (CDF1) mice
Conditions: T/C endpoint: median survival time, higher T/C = longer survival
[1] = dose: 120.0 mg/kg/injection, schedule: Q01DX005 (ip), vehicle: saline with Tween-80
[2] = dose: 240.0 mg/kg/injection, schedule: Q01DX005 (ip), vehicle: saline with Tween-80
[3] = dose: 50.0 mg/kg/injection, schedule: Q01DX005 (ip), vehicle: saline with Tween-80
[4] = dose: 100.0 mg/kg/injection, schedule: Q01DX005 (ip), vehicle: saline with Tween-80
[5] = dose: 200.0 mg/kg/injection, schedule: Q01DX005 (ip), vehicle: saline with Tween-80
[6] = dose: 100.0 mg/kg/injection, schedule: Q01DX001 (ip), vehicle: saline
[7] = dose: 25.0 mg/kg/injection, schedule: Q01DX009 (ip), vehicle: saline with Tween-80
[8] = dose: 50.0 mg/kg/injection, schedule: Q01DX009 (ip), vehicle: saline with Tween-80
[9] = dose: 100.0 mg/kg/injection, schedule: Q01DX009 (ip), vehicle: saline with Tween-80
[10] = dose: 200.0 mg/kg/injection, schedule: Q01DX009 (ip), vehicle: saline with Tween-80

In the case of `COc1ccc(C(=O)N/N=C(\C)[C@]2(O)Cc3c(O)c4c(c(O)c3[C@@H](OC3CC(N)C(O)C(C)O3)C2)C(=O)c2c(OC)cccc2C4=O)cc1` (stereo partly specified), the T/C (dose: 0.25 mg/kg/injection, schedule: Q01DX009 (ip), vehicle: water) was 129 % of control, the T/C (dose: 0.5 mg/kg/injection, schedule: Q01DX009 (ip), vehicle: water) was 136 % of control and the survivor count (dose: 16.0 mg/kg/injection, schedule: Q01DX009 (ip), vehicle: water) was 6 of 6 (2×). The survivor count (dose: 96.0 mg/kg/injection, schedule: Q04DX003 (ip), vehicle: water) was 1 of 3 and the survivor count (dose: 192.0 mg/kg/injection, schedule: Q04DX003 (ip), vehicle: water) was 0 of 3.
With `CC1(C)N=c2cc3c(cc2N1c1ccc(Cl)cc1)=Nc1ccccc1N3c1ccc(Cl)cc1` the survivor count [1] was 6 of 6 and the survivor count [2] was 6 of 6.
In the case of `N#CC(OC(=O)c1ccccc1)C(OC(=O)c1ccccc1)C(OC(=O)c1ccccc1)C(COC(=O)c1ccccc1)OC(=O)c1ccccc1` (stereo unspecified), the survivor count [3] was 5 of 5, the survivor count [4] was 5 of 5 and the survivor count [5] was 5 of 5.
In the case of `O=C(c1ccc(O)cc1)c1ccc(O)cc1O`, the T/C [6] was 125 % of control and the survivor count [6] was 6 of 6.
In the case of `C=CS(=O)(=O)OCCCl`, the T/C (dose: 12.5 mg/kg/injection, schedule: Q01DX009 (ip), vehicle: saline with Tween-80) was 108, 113, 118, 125 % of control, the T/C [7] was 108 and 125 % of control and the survivor count [7] was 2 of 6 and 3 of 6. For the same compound, the survivor count [8] was 0 of 6, the survivor count [9] was 0 of 6 and the survivor count [10] was 0 of 6.
With `COc1cc2c(cc1O)C(CSC)Cc1cc3c(cc1N(C)CC2)OCO3` (stereo unspecified) the survivor count [8] was 6 of 6.
With `CC1(C)CC([N+](C)(C)CCCCCC[N+](C)(C)C2CC(C)(C)N(O)C(C)(C)C2)CC(C)(C)N1O` the survivor count (dose: 100.0 mg/kg/injection, schedule: Q04DX003 (ip), vehicle: saline) was 1 of 6 and 4 of 6 and the survivor count (dose: 200.0 mg/kg/injection, schedule: Q04DX003 (ip), vehicle: saline) was 0 of 6.
`O=C(Cc1nc2ccccc2[nH]1)NNC(=S)Nc1ccc(Cl)cc1` was tested, and the survivor count (dose: 240.0 mg/kg/injection, schedule: Q01DX005 (ip), vehicle: Klucel (hydroxypropylcellulose) (HPC)) was 3 of 6.
For `NC(=O)/C(N=Nc1ccccc1S(=O)(=O)O)=N/Nc1ccccc1S(=O)(=O)O`, the survivor count (dose: 50.0 mg/kg/injection, schedule: Q01DX005 (ip), vehicle: Klucel (hydroxypropylcellulose) (HPC)) was 6 of 6.
`COc1ccc2[nH]c3c(c2c1)C(=O)c1ccncc1C3=O` was tested, and the survivor count (dose: 18.75 mg/kg/injection, schedule: Q04DX002 (ip), vehicle: Klucel (hydroxypropylcellulose) (HPC)) was 6 of 6 and the survivor count (dose: 150.0 mg/kg/injection, schedule: Q04DX002 (ip), vehicle: Klucel (hydroxypropylcellulose) (HPC)) was 6 of 6.
`C/C(=N\NC(=S)Nc1ccc(S(N)(=O)=O)cc1)c1ccccn1` was tested, and the T/C [3] was 128 % of control, the T/C [4] was 128 % of control and the survivor count [5] was 2 of 6.
For `N#CC(=O)Nc1ccc(Cl)cc1`, the survivor count (dose: 30.0 mg/kg/injection, schedule: Q01DX005 (ip), vehicle: saline with Tween-80) was 4 of 6, the survivor count (dose: 60.0 mg/kg/injection, schedule: Q01DX005 (ip), vehicle: saline with Tween-80) was 0 of 6 and the survivor count [1] was 0 of 6. The survivor count [2] was 0 of 6.
In the case of `CC1=NN(c2ccc(S(=O)(=O)O)cc2)C(=O)C1N=Nc1ccc(-c2ccc(N=Nc3ccc(O)c(C(=O)O)c3)c(C)c2)cc1C` (stereo unspecified), the T/C [8] was 89, 96, 105, 113 % of control, the survivor count [9] was 6 of 6 and the survivor count [10] was 2 of 6.
With `COC(=O)C1CC(OC(C)=O)C(O)C(O)C1OC(C)=O.[O]=[Os]=[O]` (stereo unspecified) the T/C [6] was 127 % of control and the survivor count (dose: 400.0 mg/kg/injection, schedule: Q01DX001 (ip), vehicle: saline) was 0 of 6.
`C/C=C/C=C\C(=O)O` was tested, and the survivor count [8] was 4 of 6 and the survivor count [9] was 6 of 6.
In the case of `Nc1ncnc2c1ncn2C1OC(COS(N)(=O)=O)C(O)C1O` (stereo unspecified), the survivor count (dose: 0.18 mg/kg/injection, schedule: Q01DX005 (ip), vehicle: saline) was 5 of 6, the T/C (dose: 0.37 mg/kg/injection, schedule: Q01DX001 (ip), vehicle: saline) was 125 % of control and the survivor count (dose: 0.37 mg/kg/injection, schedule: Q01DX005 (ip), vehicle: saline) was 0 of 5. For the same compound, the survivor count (dose: 0.75 mg/kg/injection, schedule: Q01DX001 (ip), vehicle: saline) was 2 of 5, the survivor count (dose: 0.75 mg/kg/injection, schedule: Q01DX005 (ip), vehicle: saline) was 0 of 5 and the survivor count (dose: 1.5 mg/kg/injection, schedule: Q01DX001 (ip), vehicle: saline) was 1 of 5. The survivor count (dose: 1.5 mg/kg/injection, schedule: Q01DX005 (ip), vehicle: saline) was 0 of 5, the survivor count (dose: 1.56 mg/kg/injection, schedule: Q01DX001 (ip), vehicle: saline) was 1 of 5 and the survivor count (dose: 3.12 mg/kg/injection, schedule: Q01DX001 (ip), vehicle: saline) was 0 of 5. For the same compound, the survivor count (dose: 6.25 mg/kg/injection, schedule: Q01DX001 (ip), vehicle: saline) was 0 of 5, the survivor count (dose: 12.5 mg/kg/injection, schedule: Q01DX001 (ip), vehicle: saline with Tween-80) was 0 of 5 and the survivor count (dose: 12.5 mg/kg/injection, schedule: Q01DX001 (ip), vehicle: saline) was 0 of 5. The survivor count (dose: 25.0 mg/kg/injection, schedule: Q01DX001 (ip), vehicle: saline with Tween-80) was 0 of 5, the survivor count (dose: 50.0 mg/kg/injection, schedule: Q01DX001 (ip), vehicle: saline with Tween-80) was 0 of 5 and the survivor count (dose: 100.0 mg/kg/injection, schedule: Q01DX001 (ip), vehicle: saline with Tween-80) was 0 of 5. For the same compound, the survivor count (dose: 200.0 mg/kg/injection, schedule: Q01DX001 (ip), vehicle: saline with Tween-80) was 0 of 5.
For `CN(C)/N=C1/CCCCC1C(O)(c1ccccc1)c1ccccc1` (stereo unspecified), the survivor count [1] was 5 of 6 and the survivor count [2] was 0 of 6.
For `Cc1cccc(Cl)c1NCCN1CCCC1`, the survivor count [1] was 2 of 6 and the survivor count [2] was 0 of 6.
With `CC(C)CNC1=CC(=O)c2ccccc2C1=O` the survivor count (dose: 400.0 mg/kg/injection, schedule: Q04DX003 (ip), vehicle: saline with Tween-80) was 1 of 6.
In the case of `COC(=O)[C@H](C)C1OC(O)C=CC1=O` (stereo partly specified), the survivor count (dose: 100.0 mg/kg/injection, schedule: Q01DX001 (ip), vehicle: saline + Tween-80 + alcohol) was 1 of 6, the survivor count (dose: 200.0 mg/kg/injection, schedule: Q01DX001 (ip), vehicle: saline + Tween-80 + alcohol) was 0 of 6 and the survivor count (dose: 400.0 mg/kg/injection, schedule: Q01DX001 (ip), vehicle: saline + Tween-80 + alcohol) was 0 of 6.
In the case of `CC1CN=C(c2ccc(NC(=O)Nc3ccc(C4=NCC(C)N4)cc3)cc2)N1` (stereo unspecified), the survivor count (dose: 6.25 mg/kg/injection, schedule: Q01DX005 (ip), vehicle: saline with Tween-80) was 6 of 6, the survivor count (dose: 12.5 mg/kg/injection, schedule: Q01DX005 (ip), vehicle: saline with Tween-80) was 5 of 6 and the survivor count (dose: 25.0 mg/kg/injection, schedule: Q01DX005 (ip), vehicle: saline with Tween-80) was 0 of 6. The survivor count [3] was 0 of 6, the survivor count [4] was 0 of 6 and the survivor count [5] was 0 of 6.
For `CC(C)(C)C(=O)Oc1c2ccccc2cc2ccccc12`, the survivor count [1] was 6 of 6 and the survivor count [2] was 6 of 6.
`Nc1nc(=S)c2[nH]c(-c3ccccc3)nc2[nH]1` was tested, and the survivor count (dose: 200.0 mg/kg/injection, schedule: Q01DX005 (ip), vehicle: other) was 3 of 6.
In the case of `CC(=O)N1C=[N+](C)C(C)(C)C1`, the survivor count (dose: 400.0 mg/kg/injection, schedule: Q04DX003 (ip), vehicle: saline) was 4 of 6.
With `Nc1nc(Nc2ccccc2)nc(-c2ccccc2)n1` the survivor count [5] was 5 of 6.
`CC(=O)NNC(=O)CCCCCCC(=O)NNC(C)=O` was tested, and the survivor count (dose: 200.0 mg/kg/injection, schedule: Q01DX005 (ip), vehicle: Klucel (hydroxypropylcellulose) (HPC)) was 3 of 6 and the survivor count (dose: 400.0 mg/kg/injection, schedule: Q01DX005 (ip), vehicle: Klucel (hydroxypropylcellulose) (HPC)) was 0 of 6.

Source: PubChem BioAssay AID330 (DTP/NCI, 2004)
